Assay [1] addresses Mycobacterium tuberculosis H37Rv Rv2231c (histidinol phosphate aminotransferase, HspAT), purified recombinant protein (Mycobacterium tuberculosis H37Rv) (UniProt P9WQ89). Nature of the assay: SEC; both purified.
Assay [2] shares this target. Nature of the assay: dynamic light scattering; Xtal concept spectrosize-300, protein at 1.0 mg/ml, passed through a 0.2 µm PVDF filter; hydrodynamic radius; both purified.

No constants are given. Whether binding was seen depends on the method and setting. Tags and fused reporters may be left off the sequences shown.

B1: Mycobacterium tuberculosis H37Rv Rv2231c (histidinol phosphate aminotransferase, HspAT), purified recombinant protein (enzyme, UniProt P9WQ89 1-364)
chain: MLWILGPHTGPLLFDAVASLDTSPLAAARYHGDQDVAPGVLDFAVNVRHDRPPEWLVRQLAALLPELARYPSTDDVHRAQDAVAERHGRTRDEVLPLVGAAEGFALLHNLSPVRAAIVVPAFTEPAIALSAAGITAHHVVLKPPFVLDTAHVPDDADLVVVGNPTNPTSVLHLREQLLELRRPGRILVVDEAFADWVPGEPQSLADDSLPDVLVLRSLTKTWSLAGLRVGYALGSPDVLARLTVQRAHWPLGTLQLTAIAACCAPRAVAAAAADAVRLTALRAEMVAGLRSVGAEVVDGAAPFVLFNIADADGLRNYLQSKGIAVRRGDTFVGLDARYLRAAVRPEWPVLVAAIAEWAKRGGRR
Turning to B1, the binding entry in assay [1] is recorded as “no binding”; in assay [2], “no binding (tested: 1.0 mg/ml)”.

The record behind these values is PMC11065945.
